The nature of the assay: qHTS Assay to Find Inhibitors of Chronic Active B-Cell Receptor Signaling. The note with it: ABC-DLBCL IkBa-CBG/CBR reporter, luminescence ratio (green luciferase fused to IkBa over red control in TMD8 lymphoma cells), 4 h. The essentials:
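Concentration-response series (up to 46 uM) were applied to TMD8 dual-reporter cells for 4 h at 37C with doxycycline. Green/red ratio, after filter-overlap correction, defined %Activity; red signal alone was normalised to basal cells and zero luminescence.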
Background: Quantitative high-throughput screening tests each substance at several concentrations.

[1] abbreviates: measured here: CBR red luminescence, cell number.
The mark [2] stands for this setting: measured here: IkBa-CBG green luminescence.

The values that follow come from PubChem BioAssay AID493014 (National Center for Advancing Translational Sciences (NCATS), 2011).

The AC50 is the concentration giving half of the maximal activity seen.

Some of the results follow. The main result of the screen is listed elsewhere. These columns were measured beside it and carry no call. Most of these compounds were active or inconclusive in the main read-out, so they are no random draw. The note in brackets gives the kind of curve behind each potency; many fits are weak.

Turning to `Cc1ccc(C)c(N(C(=O)Cn2nnc(-c3cccs3)n2)C(C(=O)NC2CC2)c2ccc(C)o2)c1` (stereo unspecified), under setting [1], the AC50 was 13 µM [falling, single point].
In the case of `COc1cccc2c(=O)c(C(=O)NCc3cccs3)c[nH]c12`, under setting [1], the concentration at half-maximal activity (AC50) is 5.01 µM [falling, full curve, poor fit].
With `CCOc1ccc(N2C(=O)CC(N(Cc3ccco3)C(=O)CC)C2=O)cc1` (stereo unspecified), the half-maximal activity concentration (AC50) under setting [1] was 35.5 µM [rising, single point].
`O=C(Nc1ccc(-c2cn3ccccc3n2)cc1)c1cccs1`: the AC50 under setting [1] is 20 µM [falling, single point].
The same measure, in the same setting: for `CC1CCCC(NC(=O)c2ccc3c(c2)NC(=O)CS3)C1C` (stereo unspecified) the value was 11.2 µM [falling, partial curve, poor fit]; for `O=C(CSc1nnc(-c2ccccn2)o1)Nc1ccccc1F`, 7.08 µM [falling, partial curve].
With `O=C1NC(=O)/C(=C\c2ccc(OCc3cnc(Cl)s3)cc2)S1`, the AC50 under setting [1] was 28.2 µM [rising, single point].
On to `O=C(Cn1c(C(=O)NCc2ccco2)cc2sccc21)c1ccccc1`, for which the AC50 under setting [1] is 29.1 µM [falling, single point].
In the case of `O=C(NNC(=O)c1ccc(Br)o1)c1ccc(NC(=O)c2ccccc2)cc1`, the AC50 under setting [1] is 20 µM [rising, partial curve, poor fit].
As to `Cc1cnc(NC(=O)CSc2nnc(Cc3ccccc3)o2)s1`, the AC50 under setting [1] was 2.59 µM [rising, partial curve, poor fit].
Regarding `CN1C(=O)c2ccccc2Sc2ccc(NC(=O)c3ccccc3F)cc21`, the AC50 under setting [1] is 17.8 µM [falling, partial curve, poor fit].
Same read-out and setting: for `NNC(=O)[C@H](Cc1ccccc1)NC(=O)Nc1ccc2c(c1)OCCO2` the value was 35.5 µM [falling, single point]; for `COc1ccccc1-n1c(SCC(=O)NC2CCS(=O)(=O)C2)nc2cc([N+](=O)[O-])ccc21` (stereo unspecified), 5.8 µM [falling, full curve]; for `O=C(Nc1ccc([N+](=O)[O-])cc1)c1ccc(Cn2cc([N+](=O)[O-])cn2)cc1`, 14.1 µM [falling, partial curve, poor fit].
The same measure, in the same setting: under `CC(=O)Nc1ccc(C(=S)NCCCO)cc1` stands 39.8 µM [rising, partial curve, poor fit]; under `Cc1cc(C(=O)Nc2ccc3ccccc3c2)oc1C`, 22.4 µM [falling, single point]; under `CC(C)NC(=O)COC(=O)c1ccc(O)cc1`, 3.16 µM [rising, partial curve, poor fit].
In the case of `Cc1ccc2nc(N3C(=O)C(O)=C(C(=O)c4ccco4)C3c3cccs3)sc2c1` (stereo unspecified), under setting [1], the AC50 was 14.1 µM [falling, partial curve, poor fit].
Take `COc1cc(C(C(=O)NC2CCCC2)N(C(=O)c2snc(C(N)=O)c2N)C2CCCC2)cc(OC)c1OC` (stereo unspecified): the AC50 under setting [1] was 14.1 µM [rising, single point].
Same read-out and setting: for `CCOC(=O)c1c(C)nc2sc3c(=O)n(-c4ccc(C(C)=O)cc4)cnc3c2c1-c1ccc(Cl)cc1` the value was 29.1 µM [falling, single point]; for `COc1cccc(NC(=O)CN2C(=O)c3cccnc3Oc3ccc(Cl)cc32)c1`, 0.891 µM [falling, full curve, poor fit].
Same read-out and setting: for `Cc1ccc(CNC(=O)Cn2ccc3cc(S(=O)(=O)N4CCCCCC4)ccc32)cc1` the value was 35.5 µM [falling, single point].
Take `CCOC(=O)c1c(NC(=O)Nc2cccc(Cl)c2)sc(C)c1C`: under setting [1], the AC50 was 2.06 µM [rising, partial curve, poor fit].
Turning to `CS(=O)(=O)c1ccc(Cl)c(NC(=O)CSc2nnc(C3CC3)n2C2CC2)c1`, the AC50 under setting [1] is 29.1 µM [rising, single point].
`CCCCN(C)C(=O)Cn1ncc2c3ccccc3n(CCC)c2c1=O`: the AC50 under setting [1] was 11.2 µM [falling, partial curve].
Consider `CC(=O)c1cccc(-n2nnnc2SCC(=O)Nc2cccc(NC(=O)c3ccco3)c2)c1`, for which the AC50 under setting [1] is 2 µM [falling, full curve].
On to `C/C(CC(=O)Nc1cc(C)ccn1)=N\NC(=O)c1cccc(F)c1`, for which the AC50 under setting [1] was 11.2 µM [falling, partial curve, poor fit].
On the same count and under the same terms, under `CCc1cccc(NC(=O)Cc2cn(C)c3ccccc23)c1` stands 35.5 µM [falling, single point]; under `Cc1ccc2c(c1)/C(=C/c1ccccc1C)C(=O)N2`, 31.6 µM [falling, single point].
In the case of `Cc1ccc(NC(=S)N2CCSC2c2cccs2)cc1` (stereo unspecified), the half-maximal activity concentration (AC50) runs as follows: under setting [1], 35.5 µM [rising, single point]; under setting [2], 20 µM [falling, partial curve, poor fit].
Regarding `Cc1cc(S(=O)(=O)N(Cc2cccs2)Cc2ccccc2F)ccc1-n1cnnn1`, the AC50 runs as follows: under setting [1], 29.1 µM [falling, single point]; under setting [2], 23.1 µM [rising, partial curve, poor fit].
Turning to `O=C(NCCc1ccc2c(c1)OCCO2)c1cc2ccccc2o1`, the AC50 under setting [1] is 25.1 µM [falling, single point].
`S=C(Nc1cccnc1)NC1CCCC1`: under setting [1], the AC50 was 4.61 µM [rising, full curve, poor fit].
Consider `COc1ccc(S(=O)(=O)N2CCc3ccccc32)cc1C(=O)NCc1ccco1`, for which the half-maximal activity concentration (AC50) under setting [1] is 5.8 µM [falling, partial curve].
On to `CC[n+]1c(/C=C/c2ccc(N(C)C)cc2)ccc2ccccc21`, for which the AC50 under setting [1] is 29.1 µM [rising, single point].
As for `Cc1ccc(C)c(S(=O)(=O)c2c[nH]c(=S)[nH]c2=O)c1`, the AC50 under setting [1] was 0.562 µM [falling, full curve, poor fit].
`COc1ccc(C)c2sc(N(CCN(C)C)C(=O)c3ccc4ccccc4c3)nc12`: the AC50 under setting [1] was 8.91 µM [falling, partial curve].
As to `COc1ccc2[nH]cc(CCNC(=O)C3CCCNC3=O)c2c1` (stereo unspecified), under setting [1], the concentration at half-maximal activity (AC50) was 0.58 µM [rising, full curve, poor fit].
On the same count and under the same terms, under `COC(=O)c1ccc(OC)c(Cn2c(=O)n(C)c(=O)c3sccc32)c1` stands 14.1 µM [rising, partial curve].
In the case of `COc1ccc(OC)c(NC(=O)C2CCCN(S(=O)(=O)c3cccc4nsnc34)C2)c1` (stereo unspecified), under setting [1], the AC50 was 3.98 µM [rising, single point].
With `COc1ccc(N(CC(=O)N/N=C/c2cccs2)S(=O)(=O)c2ccccc2)cc1`, the AC50 under setting [1] is 35.5 µM [falling, single point].
Same read-out and setting: under `CCN1C(=O)C(CC(=O)Nc2ccc(Br)cc2)N(CCCc2ccccc2)C1=S` (stereo unspecified) stands 35.5 µM [falling, single point].
Regarding `CCCC(=O)c1cc(F)c(N2CCOCC2)cc1C`, under setting [1], the AC50 was 10 µM [rising, partial curve].
For the compound `O=S(=O)(Nc1ccc2nc(-c3ccc(Br)o3)[nH]c2c1)c1ccccc1`, the AC50 under setting [1] is 0.631 µM [falling, full curve, poor fit].
As for `O=c1[nH]c(/C=C/c2ccccc2)c([N+](=O)[O-])c(=O)[nH]1`, under setting [1], the AC50 was 11.2 µM [falling, partial curve].
On to `CCCC(=O)Nc1ccc(-c2csc(-c3cccnc3)n2)cc1`, for which the AC50 under setting [1] is 0.178 µM [rising, full curve, poor fit].
Still for that read-out and setting: for `Cc1cc2nn(-c3ccc(Cl)cc3)nc2cc1N` the value was 15.8 µM [falling, single point].
In the case of `CCOC(=O)c1ccc(N2C(=O)C(CC(N)=O)N(CCc3ccc(OC)c(OC)c3)C2=S)cc1` (stereo unspecified), the AC50 under setting [1] was 35.5 µM [falling, single point].
For `O=C(NCCCc1ccccc1)c1c(O)nc2sccn2c1=O`, the AC50 under setting [1] was 7.31 µM [falling, partial curve, poor fit].
Still for that read-out and setting: for `Cc1ccc(S(=O)(=O)Nc2cccc(Cl)c2)cc1NC(=O)C1CC1` the value was 29.1 µM [falling, single point]; for `O=C(/C=C/c1ccc(S(=O)(=O)N2CCOCC2)cc1)OCC(=O)c1ccc([N+](=O)[O-])cc1`, 2.82 µM [rising, single point]; for `COc1ccc(NC(=O)Nc2cc(C)ccc2OC)cc1`, 6.51 µM [rising, full curve, poor fit].
Consider `Cc1ccc2oc(C(=O)NCCC3CCCCO3)c(C)c2c1` (stereo unspecified), for which, under setting [1], the concentration at half-maximal activity (AC50) is 6.31 µM [rising, single point].
For `COc1ccc(CN2CCN(C(=O)c3ccc4nc(N5CCOCC5)sc4c3)CC2)c(OC)c1OC`, the AC50 under setting [1] was 7.08 µM [rising, partial curve].
Still for that read-out and setting: under `CCn1c(C)c(C(=O)O)c2cc(OC)c3ccccc3c21` stands 3.98 µM [falling, partial curve]; under `CC(OC(=O)c1snc(C(=O)NC2CCCCC2)c1N)C(=O)NC(C)(C)C` (stereo unspecified), 0.411 µM [falling, full curve].
Turning to `O=S1(=O)CCC(N=Cc2ccc(-c3ccc(Cl)cc3)o2)C1` (stereo unspecified), the AC50 under setting [1] is 35.5 µM [falling, single point].
Take `NCc1cccc(CNc2ccc([N+](=O)[O-])cc2C(N)=O)c1`: the AC50 under setting [1] is 16.4 µM [falling, partial curve, poor fit].
For the compound `Cc1ncc(CO)c(/C=N/NC(=O)c2ccccc2Br)c1O`, the concentration at half-maximal activity (AC50) under setting [1] was 3.66 µM [falling, full curve].
Consider `Cc1c(/C=N\NC(=O)c2c[nH]c3ccccc23)cnn1C`, for which, under setting [1], the AC50 is 14.1 µM [falling, single point].
In the case of `CC1(C(=O)OCC(=O)Nc2ccccc2Cl)CC1(Cl)Cl` (stereo unspecified), under setting [1], the AC50 was 22.4 µM [falling, single point].
In the case of `CCOc1cc(NC(=S)NCc2ccco2)c(OCC)cc1NC(=O)c1ccco1`, the AC50 under setting [1] is 1.26 µM [falling, partial curve, poor fit].
`CCC(=O)Nc1cc(C(=O)OCC(=O)c2ccccc2)ccc1C`: the AC50 under setting [1] is 1.3 µM [rising, full curve, poor fit].
Same read-out and setting: under `COC(=O)C1C(c2ccccc2)NC(=O)NC1(O)C(F)(F)Cl` (stereo unspecified) stands 0.0891 µM [rising, full curve, poor fit].
